# Measured values: the supplement of paper PMC12542422
# Counter-ions that a name gives are not always drawn. ± gives the standard deviation of the averaged measurements. Some of the results follow. These are raw signals, not scaled to a control.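 HeLa cells imaged for ribosome-assembly readouts (ENP1 staining with or without export block, or inducible tagged ribosomal protein reporters); machine learning classified each cell's signal location against solvent (DMSO) controls. Hits exceeded the DMSO false-positive mean by five standard deviations, then were visually confirmed; three biological replicates.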
# How the values were obtained:
# [1] = test system: HeLa K (ENP1 immunofluorescence, +LMB); assay: fraction of cells with nucleolar or nucleolar/nucleoplasmic ENP1 signal (MainHitrate); higher = more cells with nucleolar/nuclear readout signal (for ENP1 -LMB: less RNAPI inhibition; for +LMB ENP1 and RP reporters: stronger nuclear/nucleolar retention, i.e. ribosome biogenesis defect); settings: concentration: 1 µM; treatment time: 6 h; ENP1 +LMB; leptomycin B: 20 nM, last 1.5 h
# [2] = test system: HeLa K (ENP1 immunofluorescence, no LMB); assay: as above; settings: concentration: 1 µM; treatment time: 6 h; ENP1 -LMB; leptomycin B: none
# [3] = test system: HeLa RPS2-YFP reporter; assay: fraction of reporter-positive cells with nuclear (nucleolar or nucleolar/nucleoplasmic) RPS2-YFP (MainHitrate); higher = more cells with nucleolar/nuclear readout signal (for ENP1 -LMB: less RNAPI inhibition; for +LMB ENP1 and RP reporters: stronger nuclear/nucleolar retention, i.e. ribosome biogenesis defect); settings: concentration: 1 µM; treatment time: 6 h
# [4] = test system: HeLa RPL29-GFP reporter; assay: fraction of reporter-positive cells with nuclear (nucleolar or nucleolar/nucleoplasmic) RPL29-GFP (MainHitrate); higher = more cells with nucleolar/nuclear readout signal (for ENP1 -LMB: less RNAPI inhibition; for +LMB ENP1 and RP reporters: stronger nuclear/nucleolar retention, i.e. ribosome biogenesis defect); settings: concentration: 1 µM; treatment time: 6 h
Compound,fraction [1],fraction [2],fraction of reporter-positive cells with nuclear [3],fraction of reporter-positive cells with nuclear [4]
Cc1cccc(Nc2ccccc2C(=O)O)c1C [Mefenamic acid],0.0552 ± 0.071,0.984 ± 0.027,0.0958 ± 0.074,0.263 ± 0.06
Cc1ccc(S(=O)(=O)NC(=O)NN2CC3CCCC3C2)cc1 (centres undefined) [Gliclazide (Diamicron)],0.148 ± 0.21,0.992 ± 0.013,0.125 ± 0.088,0.206 ± 0.075
O=C(O)c1cccnc1Nc1cccc(C(F)(F)F)c1 [Niflumic acid],0.0498 ± 0.063,0.977 ± 0.041,0.117 ± 0.094,0.215 ± 0.043
CO[C@H]1C[C@@H]2CC[C@@H](C)[C@@](O)(O2)C(=O)C(=O)N2CCCC[C@H]2C(=O)O[C@H]([C@H](C)C[C@@H]2CC[C@@H](OC(=O)C(C)(CO)CO)[C@H](OC)C2)CC(=O)[C@H](C)/C=C(\C)[C@@H](O)[C@@H](OC)C(=O)[C@H](C)C[C@H](C)/C=C/C=C/C=C/1C [Temsirolimus (Torisel)],0.17 ± 0.08,0.9974 ± 0.0044,0.223 ± 0.17,0.305 ± 0.042
O=C(O)C(=O)O.[NH-]C1CCCCC1[NH-].[Pt+2] (centres undefined) [Oxaliplatin (Eloxatin)],0.0878 ± 0.1,0.911 ± 0.15,0.073 ± 0.045,0.284 ± 0.14
CN(C)CCN(Cc1ccccc1)c1ccccn1 [Tripelennamine HCl],0.0652 ± 0.092,0.979 ± 0.037,0.11 ± 0.069,0.237 ± 0.049
CCNC(=O)CCC/C=C\C[C@@H]1[C@@H](/C=C/[C@@H](O)CCc2ccccc2)[C@H](O)C[C@@H]1O [Bimatoprost],0.107 ± 0.13,0.9978 ± 0.0038,0.12 ± 0.081,0.251 ± 0.082
C[C@@H]1CCC[C@H](C)N1NC(=O)c1ccc(Cl)c(S(N)(=O)=O)c1 [Clopamide],0.0785 ± 0.064,0.996 ± 0.0069,0.162 ± 0.15,0.269 ± 0.17
CNCC[C@H](Oc1cccc2ccccc12)c1cccs1 [Duloxetine HCl (Cymbalta)],0.0407 ± 0.046,0.9968 ± 0.0055,0.103 ± 0.085,0.209 ± 0.061
Nc1ccc(C(=O)O)c(O)c1 [Aminosalicylate sodium],0.0717 ± 0.08,0.977 ± 0.039,0.128 ± 0.12,0.226 ± 0.039
Cc1nnc(C(=O)NC(C)(C)c2nc(C(=O)NCc3ccc(F)cc3)c(O)c(=O)n2C)o1 [Raltegravir (MK-0518)],0.0994 ± 0.14,0.988 ± 0.021,0.0977 ± 0.07,0.229 ± 0.077
CN1Cc2c(N)cccc2C(c2ccccc2)C1 (centres undefined) [Nomifensine Maleate],0.132 ± 0.17,0.9953 ± 0.0082,0.16 ± 0.13,0.299 ± 0.26
Fc1ccc(C(c2ccc(F)cc2)N2CCN(C/C=C/c3ccccc3)CC2)cc1 [Flunarizine 2HCl],0.148 ± 0.22,0.989 ± 0.019,0.104 ± 0.092,0.228 ± 0.063
O=C(O)Cc1ccccc1Nc1c(Cl)cccc1Cl [Diclofenac Diethylamine],0.0966 ± 0.14,0.979 ± 0.036,0.113 ± 0.081,0.194 ± 0.066
COc1cc(OC)c(C(=O)CCCN2CCCC2)c(OC)c1 [Buflomedil HCl],0.0613 ± 0.08,0.977 ± 0.04,0.121 ± 0.088,0.221 ± 0.048
C=C(NC(=O)C(=C)NC(=O)c1csc(C2=N[C@@H]3c4csc(n4)[C@H]4NC(=O)c5csc(n5)[C@H]([C@](C)(O)[C@@H](C)O)NC(=O)[C@H]5CSC(=N5)/C(=C/C)NC(=O)[C@H]([C@@H](C)O)NC(=O)c5csc(n5)[C@]3(CC2)NC(=O)[C@H](C)NC(=O)C(=C)NC(=O)[C@H](C)NC(=O)[C@H]([C@@H](C)CC)N[C@@H]2C=Cc3c([C@H](C)O)cc(nc3[C@H]2O)C(=O)O[C@@H]4C)n1)C(N)=O [Thiostrepton],0.181 ± 0.23,0.915 ± 0.15,0.215 ± 0.21,0.325 ± 0.27
C[C@@H]1C(=O)O[C@H]2C[C@@]34[C@H]5C[C@@H](C(C)(C)C)[C@]36[C@@H](OC(=O)[C@@H]6O)O[C@@]4(C(=O)O5)[C@]21O [Ginkgolide A],0.112 ± 0.15,0.989 ± 0.02,0.104 ± 0.074,0.208 ± 0.058
CCCCCCCCOc1ccccc1C(=O)Nc1ccc(C(=O)OCC[N+](C)(CC)CC)cc1 [Otilonium Bromide],0.161 ± 0.24,0.981 ± 0.033,0.144 ± 0.11,0.224 ± 0.058
COC(=O)C1=CO[C@@H](O)[C@@H]2C(CO)=CC[C@H]12 [Genipin],0.114 ± 0.17,0.993 ± 0.013,0.109 ± 0.08,0.246 ± 0.078
O=c1c(-c2ccc(O)cc2)coc2cc(O)cc(O)c12 [Genistein],0.098 ± 0.1,0.997 ± 0.0052,0.123 ± 0.086,0.231 ± 0.055
CC[C@H]1OC(=O)C[C@@H](O)[C@H](C)[C@@H](O[C@@H]2O[C@H](C)[C@@H](O[C@H]3C[C@@](C)(O)[C@@H](O)[C@H](C)O3)[C@H](N(C)C)[C@H]2O)[C@@H](CC=O)C[C@@H](C)C(=O)/C=C/C(C)=C/[C@@H]1CO[C@@H]1O[C@H](C)[C@@H](O)[C@@H](OC)[C@H]1OC [Tylosin tartrate],0.148 ± 0.23,0.991 ± 0.016,0.129 ± 0.072,0.208 ± 0.092

# Whole records from above. Order of values: fraction [1] | fraction [2] | fraction of reporter-positive cells with nuclear [3] | fraction of reporter-positive cells with nuclear [4]
# `Cc1cccc(Nc2ccccc2C(=O)O)c1C` [Mefenamic acid] in the list: 0.0552 ± 0.071 | 0.984 ± 0.027 | 0.0958 ± 0.074 | 0.263 ± 0.06
# `CCNC(=O)CCC/C=C\C[C@@H]1[C@@H](/C=C/[C@@H](O)CCc2ccccc2)[C@H](O)C[C@@H]1O` [Bimatoprost] in the list: 0.107 ± 0.13 | 0.9978 ± 0.0038 | 0.12 ± 0.081 | 0.251 ± 0.082
